According to PMC11237027:
Positions count from the first letter of the chain named. These are yes or no findings as the source states them, for the method shown. In cells and extracts the contact can be indirect. For some assays here: Binding can be weak; no strength is given. Where a sequence is shown, tags or fusion partners need not be part of it.

By UniProt entry, the sequences of proteins in these tests, tags left out. Where a name states a change or a piece, a line headed by the entry shows the natural chain unless it says otherwise.
UniProt Q93VJ2: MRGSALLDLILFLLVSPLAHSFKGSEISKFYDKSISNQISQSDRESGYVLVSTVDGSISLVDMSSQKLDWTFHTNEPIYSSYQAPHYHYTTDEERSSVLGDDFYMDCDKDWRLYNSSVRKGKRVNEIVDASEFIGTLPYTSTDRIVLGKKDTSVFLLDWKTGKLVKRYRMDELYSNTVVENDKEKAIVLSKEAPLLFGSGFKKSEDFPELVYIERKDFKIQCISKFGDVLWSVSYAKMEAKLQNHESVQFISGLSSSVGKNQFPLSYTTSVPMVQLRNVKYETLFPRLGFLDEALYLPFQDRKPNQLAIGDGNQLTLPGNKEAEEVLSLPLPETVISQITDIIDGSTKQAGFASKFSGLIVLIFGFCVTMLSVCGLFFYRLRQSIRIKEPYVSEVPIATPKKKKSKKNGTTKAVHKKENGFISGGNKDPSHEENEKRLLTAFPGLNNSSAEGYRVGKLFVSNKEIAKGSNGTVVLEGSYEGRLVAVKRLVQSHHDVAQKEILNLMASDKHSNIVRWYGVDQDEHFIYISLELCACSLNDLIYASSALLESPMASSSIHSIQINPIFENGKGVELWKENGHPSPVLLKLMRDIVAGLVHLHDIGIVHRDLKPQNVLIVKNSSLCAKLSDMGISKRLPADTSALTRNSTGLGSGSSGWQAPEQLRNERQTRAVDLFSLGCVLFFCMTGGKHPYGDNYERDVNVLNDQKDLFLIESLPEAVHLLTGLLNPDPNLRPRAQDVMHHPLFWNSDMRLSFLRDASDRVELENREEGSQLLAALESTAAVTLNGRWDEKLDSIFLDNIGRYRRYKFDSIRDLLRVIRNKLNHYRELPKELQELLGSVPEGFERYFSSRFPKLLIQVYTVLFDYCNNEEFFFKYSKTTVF

Tests used:
[1] = target: T1, BAP2N67S (Est-0 allele of BAP2) fused to GST at the N-terminus (Arabidopsis thaliana) (UniProt Q58FX0); assay: pull-down; GST fusions from E. coli extracts bound to glutathione agarose (30 min on ice), then incubated with E. coli protein extracts of the His-tagged proteins; equilibration buffer 125 mM Tris-HCl, 150 mM sodium chloride, pH 8.0; Western blot with anti-His and anti-GST; only the target purified
T1 sequence: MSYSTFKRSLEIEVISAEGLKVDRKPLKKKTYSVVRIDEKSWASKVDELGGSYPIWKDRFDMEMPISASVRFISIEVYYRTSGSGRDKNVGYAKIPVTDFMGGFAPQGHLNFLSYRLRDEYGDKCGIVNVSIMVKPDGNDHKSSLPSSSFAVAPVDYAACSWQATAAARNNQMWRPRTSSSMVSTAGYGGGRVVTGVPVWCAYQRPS

[2] = target: T2, BON-ASSOCIATED PROTEIN2 (BAP2) fused to GST at the N-terminus (Arabidopsis thaliana) (UniProt Q58FX0); assay: as above
T2 sequence: T1 sequence with S67N

Substance: cytosolic region of IRE1B fused to a His6x-Tag at the C-terminal (from UniProt Q93VJ2) (domain or fragment)
- binding [1]: no binding
- binding [2]: binds
